The list is a part of this screen's results and no random one: it is rich in T/C values a quarter to a half above the control, in often repeated tests (any T/C) and in doses without a T/C. Further doses and runs are listed elsewhere. T/C: endpoint of the treated group in % of that of the vehicle group. Some entries give survivors of the animals treated and no T/C: the source holds a T/C of zero for them, seemingly a mark for toxic or unscored doses. Some doses without a T/C left all or most animals alive at the check, yet need not have been tolerated: the source hardly ever lists a survival T/C far under the control, and the zero likely stands for such cases as well. Survivors were counted at the toxicity check, usually on the fifth day, unless a day is given; later deaths do not show. Schedule codes are those of the source, taken here to give the interval after Q, in days (D) or hours (H), and the number of doses after X. Some schedules carry Z or #; the key to these is not given. Where survival is the endpoint, this PubChem deposit counts one and a half times the control or more as active, and values a quarter to a half above the control carry no call in these data; other NCI protocols may use other cut-offs.
System: L1210 leukemia ip in BDF1 mice, survival T/C
Assay: NCI In Vivo Anticancer Drug Screen. Data for tumor model L1210 Leukemia (intraperitoneal) in B6D2F1 (BDF1) mice
Conditions: T/C endpoint: mean survival time, higher T/C = longer survival; for T/C: dose: 140.0 mg/kg/injection
[1] = dose: 200.0 mg/kg/injection, schedule: Q01DX009 (ip), vehicle: saline with Tween-80
[2] = dose: 200.0 mg/kg/injection, schedule: Q04DX003 (ip), vehicle: Klucel (hydroxypropylcellulose) (HPC)
[3] = dose: 400.0 mg/kg/injection, schedule: Q04DX003 (ip), vehicle: Klucel (hydroxypropylcellulose) (HPC)

With CO[C@@H](C=O)O[C@@H](C=O)CO the survivor count (dose: 12.5 mg/kg/injection, schedule: Q03HX008 (ip), vehicle: water) was 8 of 8, the survivor count (dose: 12.5 mg/kg/injection, schedule: Q03HX016 (ip), vehicle: water) was 8 of 8 and the survivor count (dose: 12.5 mg/kg/injection, schedule: Q03HX024 (ip), vehicle: water) was 8 of 8. For the same compound, the survivor count (dose: 50.0 mg/kg/injection, schedule: Q01DX009 (ip), vehicle: water) was 8 of 8, the survivor count (dose: 50.0 mg/kg/injection, schedule: Q01DX009 (sc), vehicle: water) was 8 of 8 and the survivor count (dose: 50.0 mg/kg/injection, schedule: Q03HX008 (ip), vehicle: water) was 6 of 8. For the same compound, the survivor count (dose: 50.0 mg/kg/injection, schedule: Q03HX016 (ip), vehicle: water) was 3 of 8, the survivor count (dose: 50.0 mg/kg/injection, schedule: Q03HX024 (ip), vehicle: water) was 0 of 8 and the survivor count (dose: 50.0 mg/kg/injection, schedule: Q04DX003 (iv), vehicle: water) was 8 of 8. The survivor count (dose: 100.0 mg/kg/injection, schedule: Q01DX009 (ip), vehicle: water) was 6 of 8, the survivor count (dose: 100.0 mg/kg/injection, schedule: Q01DX009 (oral), vehicle: water) was 8 of 8 and the survivor count (dose: 100.0 mg/kg/injection, schedule: Q01DX009 (sc), vehicle: water) was 8 of 8. For the same compound, the survivor count (dose: 100.0 mg/kg/injection, schedule: Q03HX008 (ip), vehicle: water) was 0 of 8, the survivor count (dose: 100.0 mg/kg/injection, schedule: Q03HX016 (ip), vehicle: water) was 0 of 8 and the survivor count (dose: 100.0 mg/kg/injection, schedule: Q03HX024 (ip), vehicle: water) was 0 of 8. The survivor count (dose: 100.0 mg/kg/injection, schedule: Q04DX003 (ip), vehicle: water) was 6 of 8, the survivor count (dose: 100.0 mg/kg/injection, schedule: Q04DX003 (iv), vehicle: water) was 8 of 8 and the survivor count (dose: 100.0 mg/kg/injection, schedule: Q08DX002 (ip), vehicle: water) was 8 of 8. For the same compound, the T/C (schedule: Q01DX009 (ip), vehicle: water) was 134 % of control, the T/C (schedule: Q01DX Z (ip), vehicle: water) was 134 % of control and the survivor count (dose: 200.0 mg/kg/injection, schedule: Q01DX001 (ip), vehicle: water) was 2 of 8. The survivor count (dose: 200.0 mg/kg/injection, schedule: Q01DX009 (ip), vehicle: water) was 1 of 8, the survivor count (dose: 200.0 mg/kg/injection, schedule: Q01DX009 (oral), vehicle: water) was 8 of 8 and the survivor count (dose: 200.0 mg/kg/injection, schedule: Q01DX009 (sc), vehicle: water) was 6 of 8. For the same compound, the survivor count (dose: 200.0 mg/kg/injection, schedule: Q03HX008 (ip), vehicle: water) was 0 of 8, the survivor count (dose: 200.0 mg/kg/injection, schedule: Q03HX016 (ip), vehicle: water) was 0 of 8 and the survivor count (dose: 200.0 mg/kg/injection, schedule: Q03HX024 (ip), vehicle: water) was 0 of 8. For the same compound, the survivor count (dose: 200.0 mg/kg/injection, schedule: Q04DX003 (ip), vehicle: water) was 6 of 8, the survivor count (dose: 200.0 mg/kg/injection, schedule: Q04DX003 (iv), vehicle: water) was 7 of 8 and the survivor count (dose: 200.0 mg/kg/injection, schedule: Q08DX002 (ip), vehicle: water) was 7 of 8. For the same compound, the survivor count (dose: 400.0 mg/kg/injection, schedule: Q01DX001 (ip), vehicle: water) was 0 of 8, the survivor count (dose: 400.0 mg/kg/injection, schedule: Q01DX009 (ip), vehicle: water) was 0 of 8 and the survivor count (dose: 400.0 mg/kg/injection, schedule: Q01DX009 (oral), vehicle: water) was 8 of 8. The survivor count (dose: 400.0 mg/kg/injection, schedule: Q01DX009 (sc), vehicle: water) was 2 of 8, the survivor count (dose: 400.0 mg/kg/injection, schedule: Q04DX003 (ip), vehicle: water) was 1 of 8 and the survivor count (dose: 400.0 mg/kg/injection, schedule: Q04DX003 (iv), vehicle: water) was 7 of 8. For the same compound, the survivor count (dose: 400.0 mg/kg/injection, schedule: Q08DX002 (ip), vehicle: water) was 1 of 8, the survivor count (dose: 560.0 mg/kg/injection, schedule: Q01DX009 (ip), vehicle: water) was 1 of 8 and the survivor count (dose: 560.0 mg/kg/injection, schedule: Q01DX Z (ip), vehicle: water) was 0 of 8. For the same compound, the survivor count (dose: 800.0 mg/kg/injection, schedule: Q01DX001 (ip), vehicle: water) was 0 of 8, the survivor count (dose: 800.0 mg/kg/injection, schedule: Q01DX009 (oral), vehicle: water) was 2 of 8 and the survivor count (dose: 800.0 mg/kg/injection, schedule: Q04DX003 (ip), vehicle: water) was 0 of 8. The survivor count (dose: 800.0 mg/kg/injection, schedule: Q08DX002 (ip), vehicle: water) was 0 of 8.
In the case of c1ccc(CCc2nccc3ccccc23)cc1, the survivor count (dose: 300.0 mg/kg/injection, schedule: Q01DX001 (ip), vehicle: saline) is reported as 0 of 6.
With c1ccc(CNc2cccc3c(NCc4ccccc4)cccc23)cc1 the survivor count (dose: 200.0 mg/kg/injection, schedule: Q04DX003 (ip), vehicle: saline with Tween-80) was 6 of 6 and the survivor count (dose: 400.0 mg/kg/injection, schedule: Q04DX003 (ip), vehicle: saline with Tween-80) was 6 of 6.
For N#CC1C=CCC1 (configuration not stated), the survivor count [1] was 3 of 3.
In the case of CCOC(=O)Cc1cc(OC)c(OC)c(OC)c1, the survivor count (dose: 400.0 mg/kg/injection, schedule: Q04DX003 (ip), vehicle: acetone) is reported as 0 of 6.
With Oc1ccc(O)c(-c2ccccc2)c1 the survivor count (dose: 400.0 mg/kg/injection, schedule: Q01DX001 (ip), vehicle: carboxymethylcellulose (CMC)) was 2 of 6.
For CC(NC1=NCCO1)C(O)c1ccccc1 (configuration not stated), the survivor count (dose: 75.0 mg/kg/injection, schedule: Q01DX009 (ip), vehicle: saline with Tween-80) was 2 of 6, the survivor count (dose: 150.0 mg/kg/injection, schedule: Q01DX009 (ip), vehicle: saline with Tween-80) was 0 of 6 and the survivor count (dose: 300.0 mg/kg/injection, schedule: Q01DX009 (ip), vehicle: saline with Tween-80) was 0 of 6.
With N=C(N)S(=O)O the survivor count [1] was 6 of 6 and the survivor count (dose: 400.0 mg/kg/injection, schedule: Q01DX009 (ip), vehicle: saline with Tween-80) was 0 of 6.
In the case of N#CS/C=C\C(N)=O, the survivor count (dose: 25.0 mg/kg/injection, schedule: Q01DX009 (ip), vehicle: Klucel (hydroxypropylcellulose) (HPC)) is reported as 0 of 6, the survivor count (dose: 25.0 mg/kg/injection, schedule: Q04DX003 (ip), vehicle: Klucel (hydroxypropylcellulose) (HPC)) is reported as 0 of 6 and the survivor count (dose: 50.0 mg/kg/injection, schedule: Q01DX009 (ip), vehicle: Klucel (hydroxypropylcellulose) (HPC)) is reported as 0 of 6. The survivor count (dose: 50.0 mg/kg/injection, schedule: Q04DX003 (ip), vehicle: Klucel (hydroxypropylcellulose) (HPC)) was 0 of 6, the survivor count (dose: 100.0 mg/kg/injection, schedule: Q04DX003 (ip), vehicle: Klucel (hydroxypropylcellulose) (HPC)) was 0 of 6 and the survivor count [2] was 0 of 6. For the same compound, the survivor count [3] was 0 of 6.
CSc1ncnc2c1ncn2N(CCCCN=C=S)C(C)=O was tested, and the survivor count (dose: 100.0 mg/kg/injection, schedule: Q01DX001 (ip), vehicle: saline with Tween-80) was 0 of 6, the survivor count (dose: 200.0 mg/kg/injection, schedule: Q01DX001 (ip), vehicle: saline with Tween-80) was 0 of 6 and the survivor count (dose: 400.0 mg/kg/injection, schedule: Q01DX001 (ip), vehicle: saline with Tween-80) was 0 of 6.
With COc1cc(C2N(c3ccccc3)CCN2c2ccccc2)cc(OC)c1OC the survivor count (dose: 200.0 mg/kg/injection, schedule: Q01DX009 (ip), vehicle: Klucel (hydroxypropylcellulose) (HPC)) was 4 of 6.
For CC[n+]1ccc(/C=C\c2cccc([N+](=O)[O-])c2)cc1, the survivor count [2] was 1 of 6 and the survivor count [3] was 0 of 6.

From PubChem BioAssay AID248 (DTP/NCI, 2004)
